Results are given in words; binding and its absence hold for the method and conditions named. Some entries that bind do so weakly or less than the wild type.
What was measured:
[1] = target: hSIRPα expressed on primary human cells (human) (UniProt P78324); experiment: flow cytometry, primary CD14+ enriched monocytes
[2] = target: hSIRPα expressed on primary human cells (human) (UniProt P78324); experiment: flow cytometry on primary human granulocytes, FITC goat-anti-mouse Ig
[3] = target: hSIRPα expressed on primary human cells (human) (UniProt P78324); experiment: flow cytometry
[4] = target: hSIRPα expressed on primary human cells (human) (UniProt P78324); experiment: flow cytometry, primary human granulocytes
[5] = target: hSIRPα expressed on primary human cells (human) (UniProt P78324); experiment: flow cytometry on CD14+ enriched monocytes, human donor 2; blocked ligand: DyLight 488-labeled recombinant hCD47/Fc
[6] = target: hSIRPα expressed on primary human cells (human) (UniProt P78324); experiment: flow cytometry on CD14+ enriched monocytes, human donor 1; blocked ligand: DyLight 488-labeled recombinant hCD47/Fc
[7] = target: hSIRPα expressed on primary human cells (human) (UniProt P78324); experiment: flow cytometry on CD14+ enriched monocytes, human donor 2, AF647 goat-anti-mouse IgG
[8] = target: hSIRPα expressed on primary human cells (human) (UniProt P78324); experiment: flow cytometry on CD14+ enriched monocytes, human donor 1, AF647 goat-anti-mouse IgG

Amino acid sequences for entries named in this document (tags omitted). Residues count along the entry.
UniProt P78324, residues 31-504: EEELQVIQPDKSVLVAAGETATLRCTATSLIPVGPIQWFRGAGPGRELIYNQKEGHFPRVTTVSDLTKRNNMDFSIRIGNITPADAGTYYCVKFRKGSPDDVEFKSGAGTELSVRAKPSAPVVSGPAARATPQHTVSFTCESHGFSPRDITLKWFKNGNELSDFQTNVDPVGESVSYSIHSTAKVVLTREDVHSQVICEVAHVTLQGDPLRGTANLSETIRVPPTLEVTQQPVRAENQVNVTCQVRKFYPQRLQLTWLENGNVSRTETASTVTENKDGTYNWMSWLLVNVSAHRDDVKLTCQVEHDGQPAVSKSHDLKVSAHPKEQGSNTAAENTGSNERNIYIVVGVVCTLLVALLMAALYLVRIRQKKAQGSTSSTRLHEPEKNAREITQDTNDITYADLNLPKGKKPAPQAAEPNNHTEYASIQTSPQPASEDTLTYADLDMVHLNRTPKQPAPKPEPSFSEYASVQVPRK

Measured: binding

B1: hSIRPα.50A (antibody, V domains shown)
VH: QVQLQQSGPELVKPGASVRISCKASGFTFTNYYIHWVKQRPGQGLEWIGWIYPGNVNTKYNEKFKAKATLTADKSSTTAYMQLSSLASEDSAVYFCARPTIIATDFDVWGAGTTVTVSS
VL: DIVMTQSHKFMSTSVGDRVNITCKASQGVGTAVGWYQQKPGQSPRLLIYWASTRHTGVPDRFTGSGSGTDFSLAISNVQSEDLADYFCQQYSTYPFTFGGGTNLEIK
binds: [1] | [2] | [3] | [4]

B2: hSIRPα.40A (antibody, mouse IgG1, kappa, V domains shown)
VH: EVQFQQSGTVLARPGTSVKMSCKASGSTFTSYWMHWVKQGPGQGLQWIGAIYPVNNDTTYNQKFKGKAELTVVTSTSTAYMEVSSLTNEDSAVYYCTRSFYYSLDAAWFVYWGQGTLVTVSA
VL: DIQMTQSPSSLSASLGERVSLTCRASQDIGSRLNWLQQEPDGTIKRLIYATSSLDSGVPKRFSGSRSGSDYSLTISGLESEDFVDYYCLQYASSPFTFGGGTKLEINR
not listed: [2]
binds: all other assays above

From US20180312587A1
